PubChem BioAssay AID504764 | Drosophila RNAi Screening Center, 2011
The screen tested about 22,000 reagents; shown is an unselected part of those that have a named target and a result. In the full data, 403 (1.9%) were called active. 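Unnormalised raw counts per well; ratio z-scores behind the hit calls and whether each hit raises or lowers signal are not deposited.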 Not stated in the record: the amount of reagent.

- Test: 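Knock-downs that raise or lower a Notch target reporter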 (primary screen)
- System: Drosophila Kc167 cells
- Reagent: long dsRNA against Drosophila genes
- Time to read-out: about 5 days (4 days dsRNA, then 24 h after transfection)
- Conditions: transfection of constitutively active membrane-tethered Notch lacking the extracellular domain, read 24 h later
- Detection: 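Firefly luciferase from an E(spl)m3 reporter with active Notch, plus control-promoter and uninduced reporter wells for normalisation; unnormalised counts, duplicate wells a and b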
- Direction: induced reporter light, run 1, well a and induced reporter light, run 1, well b: higher = more light from the Notch target reporter with active Notch; control promoter light, run 1, well a and control promoter light, run 1, well b: higher = more light from the viral control promoter (cell number, transfection, viability); uninduced reporter light, run 1, well a: higher = more light from the Notch target reporter without active Notch
- Active means: 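Wells with low control signal or poorly matching duplicates excluded; duplicates averaged; per source plate, z beyond ±2 for induced/control log2 ratio or beyond ±1.8 for induced/uninduced marks a hit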
- Meaning of the calls: active = modifier hit (raised or lowered Notch signal); inactive = not a hit

bdl (borderless) [DRSC00271]: induced reporter light, run 1, well a = 89815; induced reporter light, run 1, well b = 95735; control promoter light, run 1, well a = 88955; control promoter light, run 1, well b = 83770; uninduced reporter light, run 1, well a = 5982; Outcome = inactive
dx (deltex) [DRSC18767]: induced reporter light, run 1, well a = 1.33e5; induced reporter light, run 1, well b = 1.57e5; control promoter light, run 1, well a = 2.65e5; control promoter light, run 1, well b = 2.20e5; uninduced reporter light, run 1, well a = 10555; Outcome = inactive
CG31111 [DRSC14649]: induced reporter light, run 1, well a = 1.14e5; induced reporter light, run 1, well b = 1.28e5; control promoter light, run 1, well a = 1.37e5; control promoter light, run 1, well b = 1.40e5; uninduced reporter light, run 1, well a = 7915; Outcome = inactive
mthl14 (methuselah-like 14) [DRSC07865]: induced reporter light, run 1, well a = 1.93e5; induced reporter light, run 1, well b = 1.60e5; control promoter light, run 1, well a = 1.78e5; control promoter light, run 1, well b = 1.42e5; uninduced reporter light, run 1, well a = 16620; Outcome = inactive
CG12945 [DRSC14573]: induced reporter light, run 1, well a = 44135; induced reporter light, run 1, well b = 46685; control promoter light, run 1, well a = 41480; control promoter light, run 1, well b = 38785; uninduced reporter light, run 1, well a = 2210; Outcome = inactive
CG31140 [DRSC13649]: induced reporter light, run 1, well a = 1.72e5; induced reporter light, run 1, well b = 1.63e5; control promoter light, run 1, well a = 1.71e5; control promoter light, run 1, well b = 2.49e5; uninduced reporter light, run 1, well a = 15405; Outcome = inactive
CG31140 [DRSC14603]: induced reporter light, run 1, well a = 1.70e5; induced reporter light, run 1, well b = 1.74e5; control promoter light, run 1, well a = 2.32e5; control promoter light, run 1, well b = 2.44e5; uninduced reporter light, run 1, well a = 14780; Outcome = inactive
CG31140 [DRSC15904]: induced reporter light, run 1, well a = 1.61e5; induced reporter light, run 1, well b = 1.60e5; control promoter light, run 1, well a = 1.73e5; control promoter light, run 1, well b = 1.84e5; uninduced reporter light, run 1, well a = 10665; Outcome = inactive
pasha (partner of drosha) [DRSC15295]: induced reporter light, run 1, well a = 94825; induced reporter light, run 1, well b = 1.32e5; control promoter light, run 1, well a = 1.09e5; control promoter light, run 1, well b = 1.30e5; uninduced reporter light, run 1, well a = 7835; Outcome = inactive
Polr2K (RNA polymerase II, I and III subunit K) [DRSC05535]: induced reporter light, run 1, well a = 1.99e5; induced reporter light, run 1, well b = 2.08e5; control promoter light, run 1, well a = 3.02e5; control promoter light, run 1, well b = 3.49e5; uninduced reporter light, run 1, well a = 19310; Outcome = inactive
galene [DRSC08640]: induced reporter light, run 1, well a = 1.40e5; induced reporter light, run 1, well b = 1.48e5; control promoter light, run 1, well a = 2.00e5; control promoter light, run 1, well b = 2.06e5; uninduced reporter light, run 1, well a = 9545; Outcome = inactive
galene [DRSC08641]: induced reporter light, run 1, well a = 1.03e5; induced reporter light, run 1, well b = 85405; control promoter light, run 1, well a = 1.78e5; control promoter light, run 1, well b = 1.48e5; uninduced reporter light, run 1, well a = 6080; Outcome = inactive
CG15894 [DRSC18098]: induced reporter light, run 1, well a = 1.37e5; induced reporter light, run 1, well b = 1.30e5; control promoter light, run 1, well a = 2.37e5; control promoter light, run 1, well b = 2.64e5; uninduced reporter light, run 1, well a = 10870; Outcome = inactive
CG15894 [DRSC18099]: induced reporter light, run 1, well a = 15550; induced reporter light, run 1, well b = 19035; control promoter light, run 1, well a = 24678; control promoter light, run 1, well b = 29050; uninduced reporter light, run 1, well a = 4090; Outcome = inactive
lncRNA:sphinx (long non-coding RNA:sphinx) [DRSC17199]: induced reporter light, run 1, well a = 63760; induced reporter light, run 1, well b = 56475; control promoter light, run 1, well a = 84930; control promoter light, run 1, well b = 1.03e5; uninduced reporter light, run 1, well a = 3855; Outcome = inactive
CG13081 [DRSC02185]: induced reporter light, run 1, well a = 30915; induced reporter light, run 1, well b = 22255; control promoter light, run 1, well a = 32895; control promoter light, run 1, well b = 26660; uninduced reporter light, run 1, well a = 2255; Outcome = inactive
CG34396 [DRSC04245]: induced reporter light, run 1, well a = 42535; induced reporter light, run 1, well b = 42865; control promoter light, run 1, well a = 56730; control promoter light, run 1, well b = 53210; uninduced reporter light, run 1, well a = 3240; Outcome = inactive
CG34396 [DRSC04246]: induced reporter light, run 1, well a = 48855; induced reporter light, run 1, well b = 54620; control promoter light, run 1, well a = 86270; control promoter light, run 1, well b = 55595; uninduced reporter light, run 1, well a = 3695; Outcome = inactive

Targets above whose gene name begins with G or g:
galene [DRSC08640]: induced reporter light, run 1, well a = 1.40e5; induced reporter light, run 1, well b = 1.48e5; control promoter light, run 1, well a = 2.00e5; control promoter light, run 1, well b = 2.06e5; uninduced reporter light, run 1, well a = 9545; Outcome = inactive
galene [DRSC08641]: induced reporter light, run 1, well a = 1.03e5; induced reporter light, run 1, well b = 85405; control promoter light, run 1, well a = 1.78e5; control promoter light, run 1, well b = 1.48e5; uninduced reporter light, run 1, well a = 6080; Outcome = inactive
